# PubChem BioAssay AID504467 (National Center for Advancing Translational Sciences (NCATS), 2011)
# Among all 330,000 compounds or so, about 7,700 (2.3%) were called active. This list was built around the results that the source calls inconclusive (neither active nor inactive); the mix of calls is not that of the screen. Calls come from the whole dose curve; as a rule, active = well fitted inhibition curve with a large enough effect; inconclusive = small, poorly fitted or top-dose-only effect, or effect the other way; inactive = flat fitted curve, though single readings scatter. Potencies of inconclusive entries are doubtful fits and often do not repeat.
# Experiment: qHTS screen for small molecules that inhibit ELG1-dependent DNA repair in human embryonic kidney (HEK293T) cells expressing luciferase-tagged ELG1; note: nearly all actives have a fitted effect of over 55% in size
# Settings: HEK293T ELG1-luciferase reporter, luminescence, 16 h, DNA damage induced by 5-fluorouridine; activity change, negative = inhibition: at 46.1 µM (top of the series)
# Summary of the method: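 HEK293T cells expressing luciferase-tagged ELG1 (2,000/well) received 5-Fluorouridine plus compound or DMSO for 16 hr at 37 °C. Luciferase was read by ONE-Glo luminescence after 30 min at room temperature.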
# % is set by controls: 0 for no effect and ±100 for the full control effect; potency is the fitted concentration of half-maximal effect.
SMILES,"activity change, negative = inhibition",Potency
NC(=O)C1CC(=O)N(c2ccc(OCC(=O)Nc3cccc(C(F)(F)F)c3)cc2)C1 (stereo unspecified),inactive: -3.81%,
CSc1ccccc1NC(=O)c1ccc(C)o1,,"inconclusive: 29.1 µM [activator, single point]"
C=CC(C)(C)c1cc2cc3ccoc3cc2oc1=O,inactive: 15.5%,
COC(=O)c1ccc(C(=O)OC)c(NC(=S)N2CCN(c3ccccn3)CC2)c1,,"inconclusive: 9.2 µM [inhibitor, partial curve, poor fit]"
COc1cc(NC(=O)c2ccco2)ccc1NC(=O)C(C)C,inactive: 8.74%,
CCN(CC)CCNC(=O)c1c(C)n(-c2ccccc2)c2cc(Br)c(OC)cc12,inactive: 26.4%,
Cc1nsc(N)c1C(=O)O,,"inconclusive: 18.3 µM [activator, partial curve]"
C/C(=N/NC(=O)c1ccccn1)c1ccco1,,"inconclusive: 3.16 µM [activator, partial curve, poor fit]"
CC(=O)OCC(=O)c1c[nH]c2ccccc12,inactive: -7.82%,
CCOC(=O)c1cnc2ccccc2c1NCCc1ccc(OC)c(OC)c1,,"inconclusive: 18.4 µM [inhibitor, single point]"
CC(=O)c1c(C)oc2ccc(N(C(C)=O)S(=O)(=O)c3ccc(Cl)c([N+](=O)[O-])c3)cc12,,"inconclusive: 29.1 µM [activator, single point]"
Cc1ccc(CN2C(=O)N/C(=C/c3ccc4c(c3)n(C)c(=O)n4C)C2=O)cc1,,"inconclusive: 13 µM [activator, partial curve]"
O=C1CCC(=O)N1OCCOc1ccc2c(c1)CCC2,,"inconclusive: 23.1 µM [activator, partial curve, poor fit]"
COc1ccc(NS(=O)(=O)c2cccc(C(=O)NNC(=O)CNC(=O)c3cccc(C)c3)c2)cc1,inactive: -1.58%,
O=C(CSc1n[nH]c(-c2ccncc2)n1)Nc1ccccc1C(F)(F)F,inactive: -3.47%,
Cc1cc(C(=O)N/N=C/c2cccnc2)n[nH]1,inactive: 24.4%,
CCC(=O)c1ccc(OCC(=O)Nc2cccc(S(=O)(=O)N3CCCCCC3)c2)cc1,inactive: 20.2%,
CCOc1ccc(N=Nc2cc(C(C)C)ccc2O)cc1,inactive: 10.8%,
Cc1ccc(S(=O)(=O)Nc2nc3ccccc3nc2NCc2ccco2)cc1C,,"inconclusive: 18.4 µM [inhibitor, single point]"
COc1cccc(OC)c1C(=O)Nc1cccc(-c2ccc(N3CCOCC3)nn2)c1,,"inconclusive: 13 µM [activator, partial curve, poor fit]"
Cc1ccc(S(=O)(=O)c2c(N)n(CCN3CCOCC3)c3nc4ccccc4nc23)cc1C,,"inconclusive: 1.16 µM [inhibitor, single point]"
Cc1cccc(NC(=O)Cn2c(=O)n(CC3CCCO3)c(=O)c3ccccc32)c1 (stereo unspecified),inactive: -10.3%,
CC(=O)c1cn(CC(=O)Nc2ccc(C)cc2C)c2ccccc12,,"inconclusive: 1.84 µM [inhibitor, partial curve]"

# Reprinted at random: two records from the list.
SMILES,"activity change, negative = inhibition",Potency
CSc1ccccc1NC(=O)c1ccc(C)o1,,"inconclusive: 29.1 µM [activator, single point]"
COc1cc(NC(=O)c2ccco2)ccc1NC(=O)C(C)C,inactive: 8.74%,

# (next part)

SMILES,"activity change, negative = inhibition",Potency
O=C1CC(c2ccco2)CC(O)=C1C=Nc1cc(Cl)ccc1Cl (stereo unspecified),inactive: 27.2%,
CCc1cc(C(=O)NNC(=S)Nc2cccc(C)c2)cs1,,"inconclusive: 14.6 µM [activator, partial curve]"
O=C1CN(C(=O)CCN2CCOCC2)C(c2ccccc2)c2cc(Br)ccc2N1 (stereo unspecified),inactive: -2.61%,
Nc1c(C(=O)Nc2ccccc2)sc2nc3c(c(-c4ccco4)c12)CCCC3,,"inconclusive: 35.5 µM [inhibitor, partial curve, poor fit]"
Cc1ccc2nsnc2c1S(=O)(=O)NCc1ccc2c(c1)OCO2,,"inconclusive: 20.6 µM [activator, partial curve]"
COc1ccc(-c2sc3cc4c(cc3c2C#CC2(O)CCCCC2)OCO4)cc1,inactive: -0.651%,
Cc1ccc(Nc2nc(N)c3ccccc3n2)cc1Cl,,"inconclusive: 1.03 µM [activator, partial curve]"
COc1ccc(NC(=O)C2CCCN(S(=O)(=O)c3cccc4cccnc34)C2)cc1OC (stereo unspecified),,active: 20.6 µM
O=C(c1noc2c1CCCC2)N1CCCCC1,,"inconclusive: 2.59 µM [activator, single point]"
Cc1noc(C)c1C(=O)Nc1ccc(S(=O)(=O)N2CCCCC2)cc1,,"inconclusive: 16.4 µM [inhibitor, partial curve, poor fit]"
Cc1cc(O)c(C(=O)/C=C/c2c(F)c(F)c(F)c(F)c2F)c(=O)o1,,"inconclusive: 20.6 µM [activator, single point]"
O=C(OCC(=O)N1CCCc2ccccc21)c1ccccc1[N+](=O)[O-],,"inconclusive: 7.3 µM [activator, single point]"
O=C(OCCN1C(=O)c2ccccc2C1=O)c1cc(=O)[nH]c2ccccc12,inactive: -0.795%,
CCOc1ccc(C(=O)Nc2cccc(SC)c2)cc1,,"inconclusive: 16.4 µM [activator, partial curve]"
Cc1c(/C=N/NC(=O)c2cccnc2)c2ccccc2n1Cc1ccccc1,,"inconclusive: 1.16 µM [inhibitor, single point]"
Cc1cc(Cl)c2oc(C(=O)N(C)Cc3ccon3)c(C)c2c1,,"inconclusive: 5.8 µM [activator, partial curve]"
COc1ccc(C2CC(c3ccccc3)Nc3nc(NC(=O)c4cccs4)nn32)cc1 (stereo unspecified),,"inconclusive: 32.6 µM [inhibitor, single point]"
CCOc1ccccc1NC(=O)CN(C)S(=O)(=O)c1ccc(OC)c(C)c1,,"inconclusive: 32.6 µM [inhibitor, partial curve, poor fit]"
CCC1(C)Cc2nc3[nH]c(=S)n(-c4ccccc4C)c(=O)c3cc2CO1 (stereo unspecified),inactive: -12.1%,
O=C(CN1CC(=O)Nc2ccccc21)Nc1ccc(F)c(F)c1,,"inconclusive: 16.4 µM [activator, partial curve]"
CC1CC(C)CN(C(=O)COC(=O)c2ccc(Cl)nc2)C1 (stereo unspecified),,"inconclusive: 25.9 µM [activator, partial curve, poor fit]"
CCN1CCN(c2ccc(N3CCN(S(=O)(=O)c4ccc(C)c([N+](=O)[O-])c4)CC3)nn2)CC1,inactive: 3.31%,
Cc1c(NS(=O)(=O)c2cccc3nsnc23)c(=O)n(-c2ccccc2)n1C,,"inconclusive: 23.1 µM [activator, partial curve, poor fit]"
